Results on one substance are retold here after article PMC9400329.

Protein sequences, listed by entry. Tags and fused reporters are not part of them.
UniProt P25490: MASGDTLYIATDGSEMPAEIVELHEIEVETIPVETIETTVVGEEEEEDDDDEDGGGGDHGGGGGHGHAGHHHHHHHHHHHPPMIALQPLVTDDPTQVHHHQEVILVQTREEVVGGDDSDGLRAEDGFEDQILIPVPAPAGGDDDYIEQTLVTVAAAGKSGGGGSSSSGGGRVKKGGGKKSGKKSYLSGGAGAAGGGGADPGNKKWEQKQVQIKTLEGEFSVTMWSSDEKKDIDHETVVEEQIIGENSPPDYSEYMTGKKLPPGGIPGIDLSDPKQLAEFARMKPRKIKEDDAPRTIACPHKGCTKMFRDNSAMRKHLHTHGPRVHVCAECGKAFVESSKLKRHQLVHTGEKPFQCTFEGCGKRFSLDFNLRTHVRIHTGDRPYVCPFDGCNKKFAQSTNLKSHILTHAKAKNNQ
UniProt Q09472: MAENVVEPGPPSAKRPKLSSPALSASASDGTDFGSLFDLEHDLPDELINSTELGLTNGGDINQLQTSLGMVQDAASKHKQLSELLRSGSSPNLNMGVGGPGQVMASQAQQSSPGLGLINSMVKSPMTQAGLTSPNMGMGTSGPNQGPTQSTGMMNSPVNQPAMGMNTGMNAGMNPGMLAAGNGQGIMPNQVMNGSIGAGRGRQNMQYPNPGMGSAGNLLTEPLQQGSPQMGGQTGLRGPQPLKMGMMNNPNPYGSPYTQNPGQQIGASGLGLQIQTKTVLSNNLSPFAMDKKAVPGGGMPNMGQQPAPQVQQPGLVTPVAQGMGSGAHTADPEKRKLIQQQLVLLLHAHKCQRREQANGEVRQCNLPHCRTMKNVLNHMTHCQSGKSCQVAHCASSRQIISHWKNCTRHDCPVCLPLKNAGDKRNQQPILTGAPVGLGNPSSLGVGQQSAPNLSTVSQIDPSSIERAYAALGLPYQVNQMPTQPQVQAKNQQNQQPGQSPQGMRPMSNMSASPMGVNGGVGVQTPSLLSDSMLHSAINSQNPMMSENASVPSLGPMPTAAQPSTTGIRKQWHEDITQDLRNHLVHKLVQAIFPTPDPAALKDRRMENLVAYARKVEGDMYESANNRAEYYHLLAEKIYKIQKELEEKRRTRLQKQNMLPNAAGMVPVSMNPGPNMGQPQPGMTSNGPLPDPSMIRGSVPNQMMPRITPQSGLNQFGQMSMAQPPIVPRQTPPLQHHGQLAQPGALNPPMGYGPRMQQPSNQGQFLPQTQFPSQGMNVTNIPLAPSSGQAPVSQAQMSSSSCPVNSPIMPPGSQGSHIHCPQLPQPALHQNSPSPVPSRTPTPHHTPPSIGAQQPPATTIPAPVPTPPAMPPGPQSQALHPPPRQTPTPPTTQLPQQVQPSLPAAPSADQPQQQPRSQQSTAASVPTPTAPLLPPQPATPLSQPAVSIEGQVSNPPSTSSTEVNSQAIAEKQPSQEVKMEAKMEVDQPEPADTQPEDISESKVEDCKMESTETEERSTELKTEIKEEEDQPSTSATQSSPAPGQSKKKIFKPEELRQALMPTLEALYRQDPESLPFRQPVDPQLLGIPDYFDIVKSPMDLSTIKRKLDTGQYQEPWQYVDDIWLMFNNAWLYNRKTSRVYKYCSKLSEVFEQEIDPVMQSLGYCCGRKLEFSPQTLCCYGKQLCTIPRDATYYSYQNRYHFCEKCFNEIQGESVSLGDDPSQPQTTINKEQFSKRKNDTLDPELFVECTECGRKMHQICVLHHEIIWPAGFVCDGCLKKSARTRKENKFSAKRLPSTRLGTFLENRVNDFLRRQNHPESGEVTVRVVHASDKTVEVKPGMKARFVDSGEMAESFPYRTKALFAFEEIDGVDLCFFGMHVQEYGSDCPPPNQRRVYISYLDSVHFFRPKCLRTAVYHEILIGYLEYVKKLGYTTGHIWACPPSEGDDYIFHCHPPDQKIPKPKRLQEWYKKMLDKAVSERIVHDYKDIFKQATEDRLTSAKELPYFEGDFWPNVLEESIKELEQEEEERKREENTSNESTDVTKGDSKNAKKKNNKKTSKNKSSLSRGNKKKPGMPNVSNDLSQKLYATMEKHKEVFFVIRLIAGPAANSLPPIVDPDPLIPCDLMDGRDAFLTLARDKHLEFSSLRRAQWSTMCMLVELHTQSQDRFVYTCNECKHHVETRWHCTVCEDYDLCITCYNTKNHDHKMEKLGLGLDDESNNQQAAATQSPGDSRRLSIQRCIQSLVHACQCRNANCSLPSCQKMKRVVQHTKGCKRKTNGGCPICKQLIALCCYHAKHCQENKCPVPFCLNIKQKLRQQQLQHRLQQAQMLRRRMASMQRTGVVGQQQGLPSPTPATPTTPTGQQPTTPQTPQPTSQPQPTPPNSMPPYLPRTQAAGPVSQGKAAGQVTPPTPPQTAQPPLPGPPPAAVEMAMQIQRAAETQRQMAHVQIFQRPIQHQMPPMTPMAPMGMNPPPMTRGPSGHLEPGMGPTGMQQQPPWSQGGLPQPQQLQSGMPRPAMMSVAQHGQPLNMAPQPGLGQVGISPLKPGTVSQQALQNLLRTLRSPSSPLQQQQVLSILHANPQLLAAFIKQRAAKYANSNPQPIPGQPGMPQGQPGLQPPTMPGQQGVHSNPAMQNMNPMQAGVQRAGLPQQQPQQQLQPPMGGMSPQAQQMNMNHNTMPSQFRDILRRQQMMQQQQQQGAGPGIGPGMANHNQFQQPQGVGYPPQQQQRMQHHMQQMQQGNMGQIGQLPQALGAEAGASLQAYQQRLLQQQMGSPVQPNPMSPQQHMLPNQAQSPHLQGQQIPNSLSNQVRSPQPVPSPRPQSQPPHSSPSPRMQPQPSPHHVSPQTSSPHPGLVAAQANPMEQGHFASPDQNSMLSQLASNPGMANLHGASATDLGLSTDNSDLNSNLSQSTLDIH

The assay addresses YY1-myc (UniProt P25490). Nature of the assay: co-IP; Hep3B (control or CRNDE-silenced) and Huh7 (control or CRNDE-overexpressing) cells transfected with YY1-myc; lysate precipitated with anti-Myc antibody, 10% SDS-PAGE, western blot for p300. (In general: A western blot detects proteins with antibodies after separation by electrophoresis.)

No constants are given. Whether binding was seen depends on the method and setting. Binding seen in cells or lysates may run through a third protein. Some results given as binding are weak or reduced against the parent protein; the word gives no strength.

In the case of p300 (from UniProt Q09472 1-2414), the binding result is “binds”.
